The values below come from the supplement of paper PMC7858590.

Several values for one entry are separate records, joined by “and”; a condition that tells them apart may be missing. Equal entries are not always repeated. ± gives the standard deviation of the averaged measurements. Over roughly 3,800 compounds, “cell shape (eccentricity) Z-score vs DMSO control” has its median near 1.1; the lowest 2% begin near -4.7. The list shows a part of the results.

The experiment has as its system human monocyte-derived macrophages (M0). The experiment in a line: cell shape (eccentricity) Z-score vs DMSO control; higher = more elongated, M2-like morphology. The settings on record: 20 µM; 24 h; macrophage state: M0 (M-CSF).
In the case of `CC(=O)O[C@@H]1CC[C@@]2(C)C(C[C@@H](OC(C)=O)[C@@]3(C)C4=CC(=O)O[C@@H](c5ccoc5)[C@]4(C)CCC23)C1(C)C` (some centres not stated), the “cell shape (Z-score)” value was -1.25.
`CN1CCN(C(=O)c2nc3ccc(Cl)cc3[nH]2)CC1`: the “cell shape (Z-score)” value was determined as 1.38.
The value for `CCCC(=O)O` was -0.115; that for `COC(=O)C1=CO[C@@H](O[C@@H]2O[C@H](CO)[C@@H](O)[C@H](O)[C@H]2O)[C@@H]2[C@@](C)(O)[C@@H](OC(=O)/C=C/c3ccc(OC)c(O)c3)C[C@]12O` was 2.65.
Then `CC(C)=CCc1cc(O[C@@H]2O[C@H](CO)[C@@H](O)[C@H](O)[C@H]2O)cc(CC=C(C)C)c1C(O)C(=O)O` (some centres not stated), with 1.87; and `CC(=O)O[C@@H]1CC2C(C)(C)C(=O)C3OC3[C@]2(C)C2CC[C@@]3(C)[C@H](c4ccoc4)OC(=O)C4OC43[C@@]21C` (some centres not stated), with -1.17.
Turning to `COc1c(O)cc2oc3cc(O)c(CC=C(C)C)c(O)c3c(=O)c2c1CC=C(C)C`, the “cell shape (Z-score)” value was determined as 0.968.
The value for `CCOc1ccc(NC(=O)CC(C)O)cc1` (configuration not stated) was -1.17.
Consider `CNCCCN1c2ccccc2CCc2ccccc21`, for which the “cell shape (Z-score)” value was found to be 2.19.
As for `c1ccc(C(O[C@@H]2CCCN(CCc3ccc4c(c3)OCO4)C2)c2ccccc2)cc1`, the “cell shape (Z-score)” value was 2.82.
The value for `CCN(CC)CCNC(=O)COc1ccc(OC)cc1` was -0.914.
The value for `CO[C@@]12[C@H](COC(N)=O)C3=C(C(=O)C(C)=C(N)C3=O)N1C[C@@H]1N[C@@H]12` was -1.43 ± 4; that for `CC(N)C(=O)OC(C)(C)Cc1ccc(Cl)cc1` (configuration not stated) was 5.33; that for `O=C(OCc1cccc(O)c1O[C@@H]1O[C@H](CO)[C@@H](O)[C@H](O)[C@H]1O)C1(O)C(=O)C2C=CC1C1C=CC(=O)C(O)(C(=O)OCc3cccc(O)c3O[C@@H]3O[C@H](CO)[C@@H](O)[C@H](O)[C@H]3O)C21` (some centres not stated) was -0.246.
Then `COc1ccc(-c2coc3cc(O[C@@H]4O[C@H](CO)[C@@H](O)[C@H](O)[C@H]4O)cc(O)c3c2=O)cc1`, with 0.123; and `N[C@](CC1c2ccccc2Oc2ccccc21)(C(=O)O)[C@H]1C[C@@H]1C(=O)O`, with 2.77; and `CC12CCC3c4ccc(OC(=O)c5ccccc5)cc4CCC3C1CCC2O` (configuration not stated), with 2.05.
As to `Nc1ccc(-c2cccc3c(=O)cc(N4CCOCC4)oc23)cc1`, the “cell shape (Z-score)” value was 3.82.
For `CCOC(=O)[C@H](CCc1ccccc1)N[C@@H](C)C(=O)N1CCC[C@H]1C(=O)O`, the “cell shape (Z-score)” value worked out at 2.92.
On to `OC[C@H]1O[C@@H](Oc2ccc3c(c2)OC[C@H]2c4cc5c(cc4O[C@@H]32)OCO5)[C@H](O)[C@@H](O)[C@@H]1O`, for which the “cell shape (Z-score)” value was -0.0364.
The value for `CC(=O)OCC(=O)[C@H]1CCC2C3CC=C4C[C@@H](O)CC[C@]4(C)C3CC[C@@]21C` (some centres not stated) was 3.17; that for `CC(=O)Nc1nnc(S(N)(=O)=O)s1` was 1.42.
Then `N=C(N)N/N=C\c1c(Cl)cccc1Cl`, with 1.01; and `C[C@]12CCC(=O)C=C1CC[C@@H]1[C@@H]2[C@@H](O)C[C@@]2(C)[C@H]1CC[C@]2(O)C(=O)CO`, with -2.61.
Take `O=C(CCCN1CCC(O)(c2ccc(Br)cc2)CC1)c1ccc(F)cc1`: the “cell shape (Z-score)” value was 0.74.
Then `COc1cccc2c1C(=O)c1c(O)c3c(c(O)c1C2=O)C[C@@](O)(C(C)=O)C[C@@H]3OC1CC(N)C(O)C(C)O1` (some centres not stated), with 3.34; and `CNC(=O)c1ccccc1Sc1ccc2c(/C=C/c3ccccn3)n[nH]c2c1`, with 6.16 and 7.54.
With `N#CC(OC1OC(COC2OCC(OC(=O)/C=C/c3ccc(OC4OC(CO)C(O)C(O)C4O)cc3)C(O)C2O)C(O)C(O)C1O)c1ccccc1` (configuration not stated), the “cell shape (Z-score)” value is -1.18.
Then `OC(c1cc(C(F)(F)F)nc2c(C(F)(F)F)cccc12)C1CCCCN1` (configuration not stated), with -2.36 ± 0.21; and `C[C@H](C[C@@H](O)[C@](C)(O)[C@H]1CC[C@@]2(O)C3=CC(=O)[C@@H]4C[C@@H](O)[C@@H](O)C[C@]4(C)C3CC[C@]12C)C(C)(C)O` (some centres not stated), with 1.42.
The value for `CCC(Cc1c(I)cc(I)c(N)c1I)C(=O)O` (configuration not stated) was -0.923; that for `CC/C=C/c1ccc(C)cc1/C=C/CCCC(=O)O` was 0.172; that for `CCCCCCCCc1ccc(CCC(N)(CO)CO)cc1` was -5.98 ± 2.9.
With `C/C=C1/[C@H](O[C@@H]2O[C@H](CO)[C@@H](O)[C@H](O)[C@H]2O)OC=C(C(=O)OC)[C@H]1CC(=O)OCC(C)[C@@H]1C[C@H]2OC(=O)C3=CO[C@@H](O[C@@H]4O[C@H](CO)[C@@H](O)[C@H](O)[C@H]4O)/C(=C/C)[C@@H]3CC(=O)OC[C@@H]1[C@H]2C` (some centres not stated), the “cell shape (Z-score)” value was -0.239 ± 0.36.
With `CC1(C)CC[C@]2(C(=O)O[C@@H]3O[C@H](CO)[C@@H](O)[C@H](O)[C@H]3O)CC[C@]3(C)C(=CCC4[C@@]5(C)C[C@@H](O)[C@H](O)[C@@](C)(CO)C5[C@H](O)C[C@]43C)C2C1` (some centres not stated), the “cell shape (Z-score)” value amounted to 4.82 ± 3.7.
Take `CN1CC[C@@H](c2c(O)cc(O)c3c(=O)cc(-c4ccccc4Cl)oc23)[C@H](O)C1`: the “cell shape (Z-score)” value turned out to be 4.23.
The value for `O=C(Nc1ccccc1)c1cc([N+](=O)[O-])ccc1Cl` was -1.03; that for `CC(=O)[C@H]1CCC2C3CC=C4C[C@@H](O)CC[C@]4(C)C3CC[C@@]21C` (some centres not stated) was 2.02; that for `C=C(CO)C1Cc2cc(C(C)=O)ccc2O1` (configuration not stated) was 2.37.
Then `COC(=O)c1c(-c2cc(OC)c(OC)c(OC)c2)c2ccnc(OCc3ncccn3)c2c(=O)n1Cc1ccnc(C)c1`, with 2.89; and `CC(C)n1cnc2c(NCc3ccccc3)nc(NCCCO)nc21`, with 2.35; and `Oc1ccc(-c2c(-c3ccccc3)nn3c(C(F)(F)F)cc(C(F)(F)F)nc23)cc1`, with 1.56.
For the compound `CC(C)c1cc(C(=O)N2Cc3ccc(CN4CCN(C)CC4)cc3C2)c(O)cc1O`, the “cell shape (Z-score)” value is -2.27.
As to `COc1ccc(C2CC(=O)c3c(O)cc(O)cc3O2)cc1O` (configuration not stated), the “cell shape (Z-score)” value is 0.875.
As for `CCC(C)C(OC1OC(C)C(O)C(O)C1O)C(C)C(=O)C(C)/C=C(\C)CC(C)C(O)C(C)C(=O)O` (configuration not stated), the “cell shape (Z-score)” value was -1.69.
Consider `O=c1oc2cc(O)ccc2s1`, for which the “cell shape (Z-score)” value turned out to be 1.14.
Then `Cc1occc(=O)c1CC=O`, with 1.61; and `O=c1[nH]c(=O)n([C@H]2CC(O)[C@@H](CO)O2)cc1C(F)(F)F` (some centres not stated), with 0.902.
The value for `COC1CC(OC2C(C)OC(OC3C(C)OC(OC4C(C)OCC(OC5C(O)C(O[C@H]6CC[C@@]7(C)C(=CC[C@]8(O)C7CC(OC(=O)c7ccccc7)[C@@]7(C)[C@]8(O)CC[C@@]7(O)C(C)=O)C6)OC(CO)C5OC5OC(CO)C(O)C(O)C5O)C4OC)CC3OC)CC2OC)OC(C)C1O` (some centres not stated) was -3.39.
For `CNCCC(Oc1ccccc1OC)c1ccccc1` (configuration not stated), the “cell shape (Z-score)” value was 1.09.
Then `O=C(Nc1ccc(OC(F)(F)F)cc1)c1sccc1NCc1ccnc2ccccc12`, with 5.49; and `O=C(O)Cc1nn(Cc2ccc(Br)cc2F)c(=O)c2ccccc12`, with -4.79; and `CC1CNCCN1S(=O)(=O)c1cccc2cnccc12` (configuration not stated), with 10.8.
`CC1CC(=O)C2=C(O1)OC1(C)CCC3(O)C(C)(C)C=CC(=O)C3(C)C1C2` (configuration not stated): the “cell shape (Z-score)” value amounted to 0.402.
The value for `COc1cnc(NS(=O)(=O)c2ccc(N)cc2)nc1` was 0.136; that for `COc1c2c(cc3oc(CO[C@@H]4O[C@H](CO)[C@@H](O)[C@H](O)[C@H]4O)cc(=O)c13)OC(C(C)(C)O)C2` (some centres not stated) was 2.25.
In the case of `O=C(C[C@H]1CC[C@@H](NC(=O)c2ccc(F)cc2)[C@H](CO)O1)NCc1ccncn1`, the “cell shape (Z-score)” value was determined as 2.36.
Then `COc1ccc(C=Cc2cc(O)cc(O[C@@H]3O[C@H](CO)[C@@H](O)[C@H](O)[C@H]3O)c2)cc1`, with 3.72.
For `O=C(O)[C@H]1O[C@@H](Oc2cc(O)c3c(=O)c(-c4ccc(O)cc4)coc3c2)[C@H](O)[C@@H](O)[C@@H]1O`, the “cell shape (Z-score)” value is -0.717.
The value for `COc1cc(OC)c2ccc(=O)oc2c1CC(O)C(C)(C)OC` (configuration not stated) was -0.0646 ± 0.54; that for `Oc1ccc(CCCCC(CCc2ccc(O)cc2)O[C@@H]2OC[C@@H](O)[C@H](O)[C@H]2O)cc1` (some centres not stated) was 1.23.
In the case of `COc1ncnc(N)c1OC`, the “cell shape (Z-score)” value turned out to be 2.66.
Take `COC(=O)C[C@H]1C(C)(C)[C@@H](O)[C@@H]2CC3=C4CC(O)O[C@@H](c5ccoc5)[C@]4(C)CCC3[C@@]1(C)C2=O` (some centres not stated): the “cell shape (Z-score)” value is 3.09.
In the case of `CO[C@@H]1[C@@H](O[C@@H]2O[C@H](C)[C@@H](O[C@H]3C[C@@](C)(O)[C@H](O)[C@H](C)O3)[C@H](N(C)C)[C@H]2O)[C@@H](CC=O)C[C@@H](C)[C@@H](O[C@H]2CC[C@H](N(C)C)[C@@H](C)O2)/C=C/C=C/C[C@H](C)OC(=O)C[C@H]1O`, the “cell shape (Z-score)” value is -0.614.
The value for `NC(=O)NC(=O)Cc1ccccc1` was 3.39; that for `COc1ccc(C(=O)c2ccc(C)cc2)c(O)c1` was 1.63; that for `CCOC(=O)c1ncc2[nH]c3cccc(OC(C)C)c3c2c1C` was -0.273.
For the compound `O=C(OCC1OC(Oc2ccc(O)cc2COC(=O)C2(O)C(O)CCC(O)C2O)C(O)C(O)C1O)c1ccccc1` (configuration not stated), the “cell shape (Z-score)” value is -1.19.
The value for `O=c1c(O)c(-c2ccc(O)c(O)c2)oc2cc(O)cc(O)c12` was 1.4.
The value for `Nc1ncnc2c1c(-c1cccc(OCc3ccccc3)c1)cn2[C@H]1C[C@H](CN2CCCC2)C1` was 6.27; that for `O=C1NN(C(=O)Nc2ccc(Br)cc2)[C@@H](c2ccccc2)[C@@H]1c1ccccc1` was 1.43.
Then `COc1ccc(-c2coc3cc(O)cc(O)c3c2=O)cc1`, with 1.04; and `C=C[C@H]1[C@H](O[C@@H]2O[C@H](CO)[C@@H](O)[C@H](O)[C@H]2O)OC=C2C(=O)N3Cc4c([nH]c5ccccc5c4=O)[C@@H]3C[C@H]21`, with -2.83; and `CC(C)n1c(/C=C/[C@@H](O)C[C@@H](O)CC(=O)O)c(-c2ccc(F)cc2)c2ccccc21`, with 2.27.
As for `CC(C)=CCc1c(O)c(CC=C(C)C)c2c(c1O)C(=O)CC(c1ccccc1)O2` (configuration not stated), the “cell shape (Z-score)” value came to 2.25.
Then `O=C(c1ccc(F)cc1)C1CCN(CCCCc2ccccc2)CC1`, with 1.2.
On to `CCS(=O)(=O)N(C)C1c2cc(C#N)ccc2OC(C)(C)C1O` (configuration not stated), for which the “cell shape (Z-score)” value is -3.02.
The value for `C=CC1CN2CCC1CC2[C@@H](O)c1ccnc2ccc(OC)cc12` (some centres not stated) was 0.0385.
`Cc1cc2c(cc1S(N)(=O)=O)S(=O)(=O)CCC2`: the “cell shape (Z-score)” value was found to be 1.2.
Turning to `COc1ccc2nc(NC(=O)Nc3ccccc3)sc2c1`, the “cell shape (Z-score)” value was 2.21.
The value for `C[C@@]12C[C@]3(O)O[C@H](O1)C1(COC(=O)c4ccccc4)[C@H]3C[C@@]12O[C@@H]1O[C@H](COC(=O)c2ccccc2)[C@@H](O)[C@H](O)[C@H]1O` was -3.91; that for `COc1cc(-c2cc(O)c(OC)c(OC)c2)cc(O)c1OC` was 1.43.
